According to paper PMC3044755:
Results are given in words; binding and its absence hold for the method and conditions named. Binding seen in cells or lysates may run through a third protein. Some binding calls cover weakened binding; strength is not graded here.

Chains of the proteins cited; added tags and fusions are not shown. Lines headed by an entry give the natural chain unless they say otherwise; changes in a name come on top.
UniProt P61586: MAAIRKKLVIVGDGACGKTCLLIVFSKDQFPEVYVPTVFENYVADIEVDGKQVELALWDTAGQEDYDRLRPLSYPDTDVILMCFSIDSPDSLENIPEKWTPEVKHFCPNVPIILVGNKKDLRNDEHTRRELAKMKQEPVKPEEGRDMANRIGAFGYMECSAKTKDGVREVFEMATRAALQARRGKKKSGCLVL

Target: GST-RhoA(G17A), nucleotide-free RhoA mutant (UniProt P61586)
Assay: pull-down; 20 ug purified GST-RhoA(17A) on glutathione-sepharose beads incubated 60 min at 4°C with PNS or nuclear fractions of HEK293 cells in 20 mM Hepes pH 7.6, 150 mM NaCl, 1% Triton X-100, 5 mM MgCl2; blotted for the GEFs; cells or isolated nuclei untreated or irradiated (10 Gy); only the target purified

- binding: binds
B1: Net1 (RhoA-specific GEF), endogenous (protein, UniProt Q7Z628 1-596)
chain: MEPELAAQKQPRPRRRSRRASGLSTEGATGPSADTSGSELDGRCSLRRGSSFTFLTPGPNWDFTLKRKRREKDDDVVSLSSLDLKEPSNKRVRPLARVTSLANLISPVRNGAVRRFGQTIQSFTLRGDHRSPASAQKFSSRSTVPTPAKRRSSALWSEMLDITMKESLTTREIRRQEAIYEMSRGEQDLIEDLKLARKAYHDPMLKLSIMSEEELTHIFGDLDSYIPLHEDLLTRIGEATKPDGTVEQIGHILVSWLPRLNAYRGYCSNQLAAKALLDQKKQDPRVQDFLQRCLESPFSRKLDLWSFLDIPRSRLVKYPLLLKEILKHTPKEHPDVQLLEDAILIIQGVLSDINLKKGESECQYYIDKLEYLDEKQRDPRIEASKVLLCHGELRSKSGHKLYIFLFQDILVLTRPVTRNERHSYQVYRQPIPVQELVLEDLQDGDVRMGGSFRGAFSNSEKAKNIFRIRFHDPSPAQSHTLQANDVFHKQQWFNCIRAAIAPFQSAGSPPELQGLPELHEECEGNHPSARKLTAQRRASTVSSVTQVEVDENAYRCGSGMQMAEDSKSLKTHQTQPGIRRARDKALSGGKRKETLV
